For part of these data: A negative result means that nothing was seen under these conditions. For part of these data: Where a protein sequence is shown, tags need not be part of it. For part of these data: Where cells or extracts were used, other partners may take part. For part of these data: The exact form of at least one protein or probe is not confirmed.
Experiments:
[1] = target: T1, Lin-28 (endogenous, P19 nuclear extract) (Mus musculus) (UniProt Q8K3Y3); experiment: competition with a labelled probe; conditions: protein in an extract, letters built from the parent sequence and the stated change
T1 sequence (looked up, limits assumed): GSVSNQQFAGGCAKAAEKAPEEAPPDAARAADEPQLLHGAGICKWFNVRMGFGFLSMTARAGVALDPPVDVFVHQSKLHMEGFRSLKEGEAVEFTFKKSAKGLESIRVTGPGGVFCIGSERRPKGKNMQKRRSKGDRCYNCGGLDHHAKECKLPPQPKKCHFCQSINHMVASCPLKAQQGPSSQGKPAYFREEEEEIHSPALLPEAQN

Protein sequences, listed by entry. Tags and fused reporters are not part of them. Residues count along the entry.
UniProt Q9CXY6, 2-390: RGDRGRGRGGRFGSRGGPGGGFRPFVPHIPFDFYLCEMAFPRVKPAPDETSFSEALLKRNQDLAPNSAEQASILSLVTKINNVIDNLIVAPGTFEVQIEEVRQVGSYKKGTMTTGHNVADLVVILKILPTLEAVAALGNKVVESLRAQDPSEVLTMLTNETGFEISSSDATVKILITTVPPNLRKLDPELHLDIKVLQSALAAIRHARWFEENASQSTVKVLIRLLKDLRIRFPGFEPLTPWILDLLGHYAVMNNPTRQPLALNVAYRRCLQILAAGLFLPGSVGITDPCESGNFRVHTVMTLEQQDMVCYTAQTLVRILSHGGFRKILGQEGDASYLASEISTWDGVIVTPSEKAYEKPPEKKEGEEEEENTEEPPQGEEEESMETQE

[2] = target: T2, Lin-28 (recombinant, E. coli) (Mus musculus) (UniProt Q8K3Y3); experiment: inhibition of the protein; conditions: purified recombinant protein, protein details: 6xHis N-terminal
T2 sequence (looked up): T1 sequence (looked up, limits assumed)

[3] = target: T1, Lin-28 (endogenous, P19 nuclear extract) (Mus musculus); experiment: pull-down; conditions: protein in an extract, letters built from the parent sequence and the stated change
[4] = target: T3, Lin-28B (endogenous, P19 nuclear extract) (Mus musculus) (UniProt Q45KJ6); experiment: pull-down; conditions: protein in an extract, letters built from the parent sequence and the stated change
T3 sequence (looked up, limits assumed): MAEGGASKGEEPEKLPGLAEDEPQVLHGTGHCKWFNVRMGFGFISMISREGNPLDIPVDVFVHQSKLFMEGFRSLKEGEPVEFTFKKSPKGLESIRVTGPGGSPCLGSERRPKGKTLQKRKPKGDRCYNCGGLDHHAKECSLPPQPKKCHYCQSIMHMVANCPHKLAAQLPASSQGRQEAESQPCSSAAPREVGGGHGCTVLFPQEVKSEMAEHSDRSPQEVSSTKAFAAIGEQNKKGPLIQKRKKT

[5] = target: T1, Lin-28 (endogenous, P19 nuclear extract) (Mus musculus); experiment: binding assay; conditions: UV crosslink and Lin-28 IP, protein in an extract, label: 32P
[6] = target: NF-45 (Mus musculus) (UniProt Q9CXY6); experiment: inhibition of the protein; conditions: control protein, no effect on Drosha processing; purified recombinant protein; protein details: 6xHis N-terminal; label: 32P internal
[7] = target: T4, Lin-28 (recombinant, HEK-293) (UniProt Q8K3Y3); experiment: inhibition of the protein; conditions: add-back at 100 ng/ul to Lin-28-immunodepleted P19 extract inhibits Drosha processing; purified recombinant protein; protein details: Flag N-terminal; label: 32P internal
T4 sequence (looked up, limits assumed): T1 sequence (looked up, limits assumed)

[8] = 2'-OMe, 5' spacer18 x2 [1-17 2'-OMe (N=2'-OMe-A at 1,3,4,7,10,12), 5' spacer18 x2 left out], random control capture probe, label: 5' biotin
[9] = fully 2'-OMe, 3' spacer18 [1-30 2'-OMe (N=2'-OMe-A at 3,8,12,21,23,24,27), 3' spacer18 left out], streptavidin pulldown, MALDI-TOF identification, buffer D + 0.2% Triton, 25 C, label: 3' biotin

Does “ACCAACAGGCCGGGACAAGUGCAAUAAC [Non-specific 2'-O-methyl competitor]” bind ([1]; fully 2'-OMe [1-28 2'-OMe (N=2'-OMe-A at 1,4,5,7,15,17,18,23,24,26,27)])?
Result: no binding

Which functional effect ([2]; Dicer processing not blocked at identical Lin-28 concentrations, expression host not stated for this assay, label: 32P end, variant of PLK-1 miRNA precursor with Let-7a2 loop) does the source give for “AGAGACUUAGGCACAAUCUUUCAAGAGAAGAUUGUGCCUAAGUCUCUUU [PLK-1 miRNA precursor with control loop]” here?
The functional effect was “not active”.

Which functional effect ([2]; blocks Dicer processing in HeLa cytoplasmic extract, 1-100 ng/ul, 500 uM ATP, 37 C, expression host not stated for this assay, label: 32P end) does the source give for “AGAGACUUAGGCACAAUCUUUUAGAAUUACAUCAAGGGAGAUAAAGAUUGUGCCUAAGUCUCUUU [PLK-1 miRNA precursor with Let-7a2 loop]” here?
Its functional effect is “active”.

Does “AUAAGUAUGAUAUUGUC [non-specific control capture oligo]” bind [3, 8]?
Result: no binding

Does “AUAAGUAUGAUAUUGUC [non-specific control capture oligo]” bind [4, 8]?
Result: no binding

Does “GGGAUAGUGCAGGUAGUGUUUAGUUAUCUACUGCAUUAUGAG [hsa-miR-20a stem-loop RNA]” bind ([5]; control probe not recovered)?
Result: no binding

Does “GGGGGUUGCAUAGUUUUAGGGCAGGGAUUUUGCCCACAAGGAGGUAACUAUACGACCUG [hsa-let-7d stem-loop RNA]” bind ([5]; buffer D, 25 C, yeast tRNA)?
Result: binds

With “UCCGCUAGCCUAGCUACUACCAGGUGAGUGGAGAUCUAUUGUGACCAGUCAGAAUAAUGUCAAAGUGCUUACAGUGCAGGUAGUGAUAUGUGCAUCUACUGCAGUGAAGGCACUUGUAGCAUUAUGGUGACAGCUGCCUCGCUCGAGGUUUAAACGAAUUCAGGGUUUCCUUGACAAUAUCAUACUUAU [pri-miR-17 transcript]” as the sequence, how does the functional effect ([2]; no effect on Drosha processing in HeLa nuclear extract, label: 32P internal) read?
Its functional effect is “not active”.

What about the functional effect [6] of the same sequence?
Its functional effect is “not active”.

“UCCGCUAGCCUAGCUACUACCAGGUGAGUGGAGAUCUCGUUUCCUUUUGCCUGAUUCCAGGCUGAGGUAGUCGUUUGUACAGUUUGAGGGUCUAUGAUACCACCCGGUACAGGAGAUAACUGUACAGGCAACUGCCUUGCCAGGAACAGCGCGCCAGCUGCCCUCGAGGUUUAAACGAAUUCAGGGUUUCCUUGACAAUAUCAUACUUAU [pri-Let-7g transcript]” was tested. Which functional effect ([2]; inhibits Drosha processing in HeLa nuclear extract, 1-100 ng/ul, 37 C, label: 32P internal) did it give?
Its functional effect is “active”.

And the functional effect [7]?
The functional effect was “active”.

What about the functional effect [6] of the same sequence?
The functional effect was “not active”.

Does “UUAGGGCAGGGAUUUUGCCCACAAGGAGGU [Let-7d loop 2'-O-methyl capture probe]” bind [3, 9]?
Result: binds

Does “UUAGGGCAGGGAUUUUGCCCACAAGGAGGU [Let-7d loop 2'-O-methyl capture probe]” bind [4, 9]?
Result: binds

Does “UUAGGGCAGGGAUUUUGCCCACAAGGAGGU [Let-7d loop 2'-O-methyl competitor]” bind ([1]; fully 2'-OMe [1-30 2'-OMe (N=2'-OMe-A at 3,8,12,21,23,24,27)], competes let-7d crosslink to Lin-28, 12.5-1250 nM)?
Result: binds

Reference: patent publication US20110172295
